In the supplement of paper PMC7666118:
The list shows a part of the results.

Chains of the proteins cited; added tags and fusions are not shown. Lines headed by an entry give the natural chain unless they say otherwise; changes in a name come on top.
UniProt Q9BV81: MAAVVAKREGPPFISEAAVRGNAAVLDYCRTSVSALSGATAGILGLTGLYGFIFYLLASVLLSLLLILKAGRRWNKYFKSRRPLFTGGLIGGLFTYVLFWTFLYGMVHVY
UniProt Q6I9Y2: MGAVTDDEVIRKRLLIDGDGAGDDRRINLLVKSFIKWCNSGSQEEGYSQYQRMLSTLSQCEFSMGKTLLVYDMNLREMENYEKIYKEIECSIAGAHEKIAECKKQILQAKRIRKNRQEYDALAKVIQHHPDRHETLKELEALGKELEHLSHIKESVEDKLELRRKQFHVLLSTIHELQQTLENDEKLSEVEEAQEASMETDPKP
UniProt P63313: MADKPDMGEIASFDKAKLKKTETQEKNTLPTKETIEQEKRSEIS
UniProt Q9Y584: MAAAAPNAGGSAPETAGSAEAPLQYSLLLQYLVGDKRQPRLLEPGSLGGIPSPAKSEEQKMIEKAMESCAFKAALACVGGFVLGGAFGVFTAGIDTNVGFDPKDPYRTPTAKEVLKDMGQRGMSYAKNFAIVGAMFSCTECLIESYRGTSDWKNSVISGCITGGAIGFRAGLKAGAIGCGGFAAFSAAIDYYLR
UniProt Q9Y2W6: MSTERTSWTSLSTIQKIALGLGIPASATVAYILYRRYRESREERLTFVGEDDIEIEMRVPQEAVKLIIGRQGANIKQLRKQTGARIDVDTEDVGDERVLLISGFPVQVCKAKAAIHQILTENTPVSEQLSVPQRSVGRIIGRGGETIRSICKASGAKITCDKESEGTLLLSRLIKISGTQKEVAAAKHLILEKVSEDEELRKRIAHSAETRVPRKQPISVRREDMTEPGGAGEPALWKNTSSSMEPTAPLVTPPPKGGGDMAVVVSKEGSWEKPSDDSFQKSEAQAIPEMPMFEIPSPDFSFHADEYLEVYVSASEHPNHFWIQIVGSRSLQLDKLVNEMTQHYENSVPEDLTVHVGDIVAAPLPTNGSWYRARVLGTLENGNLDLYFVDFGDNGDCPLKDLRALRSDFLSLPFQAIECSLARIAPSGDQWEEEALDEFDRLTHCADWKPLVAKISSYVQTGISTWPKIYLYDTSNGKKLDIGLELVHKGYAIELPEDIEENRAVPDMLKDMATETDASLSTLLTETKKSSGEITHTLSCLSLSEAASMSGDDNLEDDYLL
UniProt Q9BVX2: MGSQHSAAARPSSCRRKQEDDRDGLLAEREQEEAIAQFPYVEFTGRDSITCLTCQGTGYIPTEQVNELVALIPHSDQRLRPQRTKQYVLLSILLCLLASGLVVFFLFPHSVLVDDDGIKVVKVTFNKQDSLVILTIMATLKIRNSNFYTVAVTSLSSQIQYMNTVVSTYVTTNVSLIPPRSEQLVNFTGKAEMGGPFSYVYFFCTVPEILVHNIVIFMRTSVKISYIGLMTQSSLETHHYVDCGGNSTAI
UniProt Q8IUX1: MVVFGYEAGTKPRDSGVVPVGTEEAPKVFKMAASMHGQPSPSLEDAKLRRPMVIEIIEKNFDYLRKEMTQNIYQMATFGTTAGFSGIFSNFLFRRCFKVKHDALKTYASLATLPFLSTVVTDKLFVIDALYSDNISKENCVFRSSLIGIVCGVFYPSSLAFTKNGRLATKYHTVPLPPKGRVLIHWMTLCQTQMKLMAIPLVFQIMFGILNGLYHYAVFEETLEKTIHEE
UniProt Q8WUA7: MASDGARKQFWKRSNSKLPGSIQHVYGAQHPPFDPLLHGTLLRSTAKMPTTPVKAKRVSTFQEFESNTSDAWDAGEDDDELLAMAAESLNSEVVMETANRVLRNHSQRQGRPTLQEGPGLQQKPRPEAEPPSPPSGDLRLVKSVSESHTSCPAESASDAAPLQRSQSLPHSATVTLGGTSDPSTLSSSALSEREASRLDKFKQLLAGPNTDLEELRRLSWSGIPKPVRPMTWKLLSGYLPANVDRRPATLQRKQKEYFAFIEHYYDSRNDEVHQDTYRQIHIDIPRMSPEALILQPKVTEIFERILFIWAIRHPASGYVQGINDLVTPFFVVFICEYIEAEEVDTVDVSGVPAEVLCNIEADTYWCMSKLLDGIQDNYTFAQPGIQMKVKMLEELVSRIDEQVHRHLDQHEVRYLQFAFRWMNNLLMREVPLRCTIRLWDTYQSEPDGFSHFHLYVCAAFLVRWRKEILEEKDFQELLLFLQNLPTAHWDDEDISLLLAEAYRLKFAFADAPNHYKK
UniProt Q8NDV7: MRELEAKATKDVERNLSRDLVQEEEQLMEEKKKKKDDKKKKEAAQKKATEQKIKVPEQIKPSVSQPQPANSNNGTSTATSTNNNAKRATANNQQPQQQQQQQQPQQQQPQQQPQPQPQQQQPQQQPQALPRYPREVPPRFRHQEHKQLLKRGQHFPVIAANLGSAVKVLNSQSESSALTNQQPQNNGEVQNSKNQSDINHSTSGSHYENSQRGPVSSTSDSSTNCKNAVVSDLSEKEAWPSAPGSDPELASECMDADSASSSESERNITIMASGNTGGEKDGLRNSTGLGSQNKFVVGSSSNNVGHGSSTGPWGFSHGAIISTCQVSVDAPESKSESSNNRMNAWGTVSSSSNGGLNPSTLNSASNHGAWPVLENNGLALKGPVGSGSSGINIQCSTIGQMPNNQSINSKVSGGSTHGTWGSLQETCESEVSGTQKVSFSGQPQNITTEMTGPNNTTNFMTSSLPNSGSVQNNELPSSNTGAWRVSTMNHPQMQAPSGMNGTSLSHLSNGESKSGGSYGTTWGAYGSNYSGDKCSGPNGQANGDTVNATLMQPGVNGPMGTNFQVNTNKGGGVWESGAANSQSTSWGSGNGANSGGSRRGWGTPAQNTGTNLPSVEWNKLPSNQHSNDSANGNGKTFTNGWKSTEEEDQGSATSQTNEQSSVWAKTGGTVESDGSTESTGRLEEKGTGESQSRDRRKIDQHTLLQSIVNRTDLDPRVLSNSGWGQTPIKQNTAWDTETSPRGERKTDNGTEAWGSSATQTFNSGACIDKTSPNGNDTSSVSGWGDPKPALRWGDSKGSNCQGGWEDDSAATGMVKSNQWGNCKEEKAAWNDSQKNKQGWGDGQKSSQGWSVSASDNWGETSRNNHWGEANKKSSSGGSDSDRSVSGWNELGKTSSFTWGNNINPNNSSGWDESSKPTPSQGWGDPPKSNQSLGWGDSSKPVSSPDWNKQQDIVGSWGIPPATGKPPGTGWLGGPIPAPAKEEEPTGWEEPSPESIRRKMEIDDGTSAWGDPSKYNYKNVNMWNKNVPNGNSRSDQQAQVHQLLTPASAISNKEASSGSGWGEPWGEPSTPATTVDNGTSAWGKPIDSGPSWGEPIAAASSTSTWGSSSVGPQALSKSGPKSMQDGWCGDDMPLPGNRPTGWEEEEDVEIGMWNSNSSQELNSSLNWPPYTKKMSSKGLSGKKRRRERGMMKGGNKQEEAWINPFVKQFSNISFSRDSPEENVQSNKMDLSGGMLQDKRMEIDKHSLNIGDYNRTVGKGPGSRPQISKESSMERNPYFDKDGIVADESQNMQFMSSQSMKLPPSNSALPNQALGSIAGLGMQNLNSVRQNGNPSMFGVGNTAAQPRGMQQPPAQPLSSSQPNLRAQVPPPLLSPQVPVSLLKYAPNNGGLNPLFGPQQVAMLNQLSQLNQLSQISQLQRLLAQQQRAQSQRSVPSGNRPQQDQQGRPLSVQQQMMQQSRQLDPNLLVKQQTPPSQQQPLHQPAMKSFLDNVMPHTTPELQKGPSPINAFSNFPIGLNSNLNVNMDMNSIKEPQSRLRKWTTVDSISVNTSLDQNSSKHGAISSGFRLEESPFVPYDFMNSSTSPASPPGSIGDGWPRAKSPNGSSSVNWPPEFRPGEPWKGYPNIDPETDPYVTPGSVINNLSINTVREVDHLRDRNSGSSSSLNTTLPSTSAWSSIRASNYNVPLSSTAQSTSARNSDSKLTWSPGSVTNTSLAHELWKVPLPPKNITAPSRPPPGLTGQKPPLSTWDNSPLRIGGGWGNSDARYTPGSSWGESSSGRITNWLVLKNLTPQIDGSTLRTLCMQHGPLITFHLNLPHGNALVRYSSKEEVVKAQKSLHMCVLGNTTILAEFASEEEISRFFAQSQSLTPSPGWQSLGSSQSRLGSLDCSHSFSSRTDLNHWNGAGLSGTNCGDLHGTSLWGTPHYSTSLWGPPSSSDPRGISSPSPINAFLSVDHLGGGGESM
UniProt Q9NYL9: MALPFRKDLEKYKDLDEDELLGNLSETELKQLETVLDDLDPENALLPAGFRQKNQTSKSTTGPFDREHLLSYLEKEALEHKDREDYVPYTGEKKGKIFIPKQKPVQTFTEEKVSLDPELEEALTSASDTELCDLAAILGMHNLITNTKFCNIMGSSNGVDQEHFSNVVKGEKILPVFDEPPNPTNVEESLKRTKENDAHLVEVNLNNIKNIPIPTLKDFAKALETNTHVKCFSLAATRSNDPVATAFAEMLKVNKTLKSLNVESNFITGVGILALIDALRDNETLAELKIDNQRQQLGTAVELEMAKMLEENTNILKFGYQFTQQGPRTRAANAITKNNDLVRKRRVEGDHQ
UniProt Q9NX61: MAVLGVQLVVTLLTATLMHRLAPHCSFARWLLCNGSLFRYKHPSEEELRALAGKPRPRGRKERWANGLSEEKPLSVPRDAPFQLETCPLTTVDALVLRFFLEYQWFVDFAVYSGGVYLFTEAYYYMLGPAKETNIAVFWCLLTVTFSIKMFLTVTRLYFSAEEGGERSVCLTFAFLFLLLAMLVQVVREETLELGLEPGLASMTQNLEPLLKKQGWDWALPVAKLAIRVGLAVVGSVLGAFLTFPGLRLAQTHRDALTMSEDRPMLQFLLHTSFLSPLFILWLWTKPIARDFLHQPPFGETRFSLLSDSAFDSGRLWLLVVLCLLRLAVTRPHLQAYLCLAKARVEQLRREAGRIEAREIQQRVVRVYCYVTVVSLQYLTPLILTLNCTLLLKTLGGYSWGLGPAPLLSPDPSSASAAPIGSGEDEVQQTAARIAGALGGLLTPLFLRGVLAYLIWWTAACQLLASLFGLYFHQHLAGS

Compound: COc1ccc(Cn2ccc3ccc(C(=O)NO)cc32)cc1
Assay: dose-dependent thermal stabilisation call (2D-TPP, DLPTP, 10% FDR) (binary (1 = stabilised)); higher = stabilised by the compound
Conditions: system: HL-60 intact cells; concentration range 0.04-10 µM

Target: TMEM93 (UniProt Q9BV81)
- dose-dependent thermal stabilisation call: inactive: 0

Target: THOC7 (UniProt Q6I9Y2)
- dose-dependent thermal stabilisation call: inactive: 0

Target: TMSB10 (UniProt P63313)
- dose-dependent thermal stabilisation call: inactive: 0

Target: TIMM22 (UniProt Q9Y584)
- dose-dependent thermal stabilisation call: inactive: 0

Target: TDRKH (UniProt Q9Y2W6)
- dose-dependent thermal stabilisation call: inactive: 0

Target: TMEM106C (UniProt Q9BVX2)
- dose-dependent thermal stabilisation call: inactive: 0

Target: TMEM126B (UniProt Q8IUX1)
- dose-dependent thermal stabilisation call: inactive: 0

Target: TBC1D22A (UniProt Q8WUA7)
- dose-dependent thermal stabilisation call: inactive: 0

Target: TNRC6A (UniProt Q8NDV7)
- dose-dependent thermal stabilisation call: inactive: 0

Target: TMOD3 (UniProt Q9NYL9)
- dose-dependent thermal stabilisation call: inactive: 0

Target: TMEM161A (UniProt Q9NX61)
- dose-dependent thermal stabilisation call: inactive: 0
